Results deposited as PubChem BioAssay AID504808 (Drosophila RNAi Screening Center, 2011).

Test: 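Chromatin factors that keep E2F targets switched off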 (primary screen)
Cell system: Drosophila S2 cells
Reagents: long dsRNA against Drosophila genes
Measured: 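Firefly luciferase driven by E2F sites, normalised to Renilla luciferase on the same minimal promoter, measured by plate reader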
Direction: E2F firefly: higher = more E2F reporter activity; Renilla normaliser: higher = more normaliser reporter signal
Hit rule: 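Called active if the normalised E2F reporter went up by over 50%; the cutoff is arbitrary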
In all, the deposit lists about 21,000 reagents; this is a random part of those with a known target gene and a result. Of all reagents, 18 (0.084%) were called active. 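Raw counts without plate normalisation, one of two replicates; the ratio scores behind the calls were not deposited.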 Unmarked entries are inactive. A plus sign joins genes that one reagent is predicted to hit. Not given: the amount of reagent, the time to read-out.

gene knocked down,DRSC id,"E2F firefly, rep 1","Renilla normaliser, rep 1"
kdn,DRSC18328,6018,324
Pur-alpha,DRSC17166,2017,840
Cp7Fa,DRSC18032,1.11e5,5462
Cp7Fa,DRSC18033,95603,5050
GCC88,DRSC14264,1.38e5,6381
CG7772,DRSC20056,1.57e5,5395
gek,DRSC04688,95502,3262
CG17883,DRSC07838,91539,4252
lncRNA:CR32658,DRSC19402,1.28e5,6156
CG2930,DRSC17730,1931,968
CG1701,DRSC06641,1.54e5,5301
CG12698,DRSC19485,1.50e5,6618
Kr,DRSC04622,99812,4045
Su(z)12,DRSC11293,1.65e5,8269
CG9578,DRSC20694,1.44e5,5825
CG12384,DRSC06145,177,44
CG15429,DRSC00444,1.60e5,5157
Agpat3,DRSC10445,74870,3380
GstT2,DRSC06244,1.41e5,4712
Pka-C1,DRSC03399,80319,3996
Ravus,DRSC15126,96450,4934

Entries listed so far whose target name starts with C or c:
gene knocked down,DRSC id,"E2F firefly, rep 1","Renilla normaliser, rep 1"
Cp7Fa,DRSC18032,1.11e5,5462
Cp7Fa,DRSC18033,95603,5050
CG7772,DRSC20056,1.57e5,5395
CG17883,DRSC07838,91539,4252
CG2930,DRSC17730,1931,968
CG1701,DRSC06641,1.54e5,5301
CG12698,DRSC19485,1.50e5,6618
CG9578,DRSC20694,1.44e5,5825
CG12384,DRSC06145,177,44
CG15429,DRSC00444,1.60e5,5157

Next results follow.
gene knocked down,DRSC id,"E2F firefly, rep 1","Renilla normaliser, rep 1"
p130CAS + Dic61B,DRSC08588,61955,3259
CG14626,DRSC18631,46302,2901
CG15200,DRSC19647,1.29e5,6973
CG7497,DRSC10857,77044,3380
pad,DRSC14227,1.17e5,6292
Lmpt,DRSC09450,1.33e5,3876
Lmpt,DRSC09864,1.59e5,8254
Lmpt,DRSC09865,76450,3075
Lmpt,DRSC09866,1.56e5,7948
Lmpt,DRSC11107,1.55e5,7863
CG30325,DRSC05685,1.78e5,5959
MagR,DRSC20092,2.14e5,6786
Tango2,DRSC19394,8011,780
